# Where “and” joins values, the source holds several entries; their conditions need not be identical. Equal values may be shown once. Some of the results follow. Repeats in this data set agree poorly, so a single value says little.
# By UniProt entry, the sequences of proteins in these tests, tags left out.
# UniProt Q15717, whole entry: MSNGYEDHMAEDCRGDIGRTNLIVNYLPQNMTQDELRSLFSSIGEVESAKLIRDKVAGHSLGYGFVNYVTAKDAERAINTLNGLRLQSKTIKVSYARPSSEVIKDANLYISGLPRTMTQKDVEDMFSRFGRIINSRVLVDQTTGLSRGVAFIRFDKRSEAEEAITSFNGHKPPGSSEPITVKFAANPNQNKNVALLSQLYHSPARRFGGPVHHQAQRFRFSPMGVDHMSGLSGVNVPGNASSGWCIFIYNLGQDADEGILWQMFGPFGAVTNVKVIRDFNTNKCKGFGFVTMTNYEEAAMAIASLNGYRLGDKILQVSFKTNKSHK
# Biological target: HuR (ELAVL1) - TNFalpha ARE RNA complex (UniProt Q15717)
# Assay: AlphaScreen HuR-RNA complex signal Z-score relative to positive (Bi-TNF, DMSO) controls (Z-score (SD units of positive control)); higher = more complex signal
# Details: screen stage: primary screen; compound concentration: 25 nM
row,Compound,AlphaScreen HuR-RNA complex signal Z-score
1,COc1cc2ccc(=O)oc2c2ccoc12,3.2
2,NCC1(CC(=O)O)CCCCC1,0.814
3,C=CCc1ccc(OC)cc1,2.69
4,CC[C@@H](C)C(=O)O[C@H]1[C@H](O)[C@H]2[C@@H](CN3C[C@@H](C)CC[C@H]3[C@@]2(C)O)[C@@H]2C[C@]34O[C@]5(O)[C@@H](OC(=O)[C@@](C)(O)CC)CC[C@@]3(C)[C@@H]5[C@@H](OC(C)=O)[C@@H](OC(C)=O)[C@H]4[C@@]21O,-2.26
5,O=c1cccc2n1CC1CC2CN2CCCC[C@@H]12.[O-][Cl+3]([O-])([O-])O (some centres undefined),2.82
6,CCOC(=O)c1cncn1[C@H](C)c1ccccc1,3.4
7,ClC1=C(Cl)C2(Cl)C3C4CC(C5OC45)C3C1(Cl)C2(Cl)Cl (centres undefined),2.22
8,C[N+]12CC[C@@]34c5ccccc5N5C(=O)C[C@@H]6OCC=C(C1)[C@H](C[C@@H]32)[C@@H]6[C@H]54 (some centres undefined),-0.975
9,COc1ccc2c(c1OC)C(=O)O[C@@H]2[C@H]1c2cc3c(cc2CCN1C)OCO3,-0.175
10,O=C(NC(=O)c1c(F)cccc1F)Nc1ccc(Cl)cc1,4.62
11,COc1cc2c(cc1O)CCN[C@@H]2C,1.93
12,C[C@@H]1C[C@@H]([C@H](O)CC2CC(=O)NC(=O)C2)C(=O)[C@@H](C)C1,0.159
13,COc1cc2c(cc1OC)[C@@H]1C(=O)c3ccc4c(c3O[C@@H]1CO2)CC(C(C)C)O4 (some centres undefined),2.12
14,COc1ccc2c(c1OC)C(=O)O[C@H]2[C@H]1c2cc3c(cc2CCN1C)OCO3,2.09
15,CC[C@@H](CO)NC(=O)[C@@H]1C=C2c3cccc4[nH]cc(c34)C[C@H]2N(C)C1,3.71
16,CCCCOC(=O)c1ccccc1C(=O)OCCCC,0.311
17,C=CCc1cc(OC)c2c(c1OC)OCO2,1.51
18,C[N+]1(C)CCc2cc3c(cc2[C@H]1[C@@H]1OC(=O)c2c1ccc1c2OCO1)OCO3,1.98
19,CCC(C)C(=O)OC1CC2(C)C(c3ccoc3)OC(=O)CC23OC2(C)OC34C(OC(=O)C(C)C)C3(O)C(OC(=O)C5(C)OC5C)C5(C)CC3(O)C(C)(C5CC(=O)OC)C14O2 (centres undefined),-4.89
20,c1cncc([C@@H]2CCCCN2)c1,1.59
21,CC(C)(O)[C@@H]1[C@H]2OC(=O)[C@@H]1[C@]1(O)C[C@H]3O[C@]34C(=O)O[C@H]2[C@]14C,2.18
22,CC(C)(C#N)O[C@@H]1O[C@H](CO)[C@@H](O)[C@H](O)[C@H]1O,1.55
23,CC(=O)O[C@H]1C(=O)[C@@]2(C)[C@H]([C@H](OC(=O)c3ccccc3)[C@]3(O)C[C@H](O)C(C)=C1C3(C)C)[C@]1(OC(C)=O)CO[C@@H]1C[C@@H]2O,0.473
24,C=C(C)[C@H]1Cc2c(ccc3c(=O)c4c(oc23)COc2cc(OC)c(OC)cc2-4)O1,2.36
25,CC(=O)O[C@H]1[C@H]2[C@@H](OC(=O)Cc3ccccc3)[C@@H](C)C[C@]2(OC(C)=O)C(=O)/C(C)=C/[C@@H]2[C@H](CC[C@@]13CO3)C2(C)C,2.52
26,NC(=O)c1cc([N+](=O)[O-])cc([N+](=O)[O-])c1,3.36
27,COc1ccc2c(c1O)-c1c(OC)c(OC)cc3c1[C@H](C2)N(C)CC3,1.78

# Random excerpt: 3 entries already listed
row,Compound,AlphaScreen HuR-RNA complex signal Z-score
23,CC(=O)O[C@H]1C(=O)[C@@]2(C)[C@H]([C@H](OC(=O)c3ccccc3)[C@]3(O)C[C@H](O)C(C)=C1C3(C)C)[C@]1(OC(C)=O)CO[C@@H]1C[C@@H]2O,0.473
15,CC[C@@H](CO)NC(=O)[C@@H]1C=C2c3cccc4[nH]cc(c34)C[C@H]2N(C)C1,3.71
12,C[C@@H]1C[C@@H]([C@H](O)CC2CC(=O)NC(=O)C2)C(=O)[C@@H](C)C1,0.159

# The listing continues.

row,Compound,AlphaScreen HuR-RNA complex signal Z-score
1,O=C1CC[C@@]2(O)[C@H]3Cc4ccc(O)c5c4[C@@]2(CCN3CC2CC2)[C@H]1O5,0.723
2,C=CCSSCC=C,1.52
3,CC(=O)[C@H]1CC[C@H]2[C@@H]3CC[C@H]4C[C@H](O)CC[C@]4(C)[C@H]3CC[C@]12C,0.648
4,NCC(CC(=O)O)c1ccc(Cl)cc1 (centres undefined),0.358
5,CC(NC(C)(C)C)C(=O)c1cccc(Cl)c1 (centres undefined),-2.69
6,O=C(O)CCCO,-3.21
7,CN[C@@H](C)[C@@H](O)c1ccccc1,4.12
8,CN1[C@@H]2C[C@@H](OC(=O)[C@H](CO)c3ccccc3)C[C@H]1[C@@H]1O[C@@H]12,3.25
9,C[C@@H]1O[C@@H](O[C@H]2CC[C@]3(C=O)[C@H]4CC[C@]5(C)[C@@H](C6=CC(=O)OC6)CC[C@]5(O)[C@@H]4CC[C@]3(O)C2)[C@H](O)[C@H](O)[C@H]1O,2.06
10,CC1(C)C2CC(=O)[C@]3(C)C(CC[C@@]4(C)[C@H](c5ccoc5)OC(=O)C5OC543)[C@@]2(C)[C@@H](O)C[C@H]1O (some centres undefined),2.37
11,ClC(Cl)=C(c1ccc(Cl)cc1)c1ccc(Cl)cc1,0.956
12,COC1=C[C@@H]2[C@@H]3Cc4ccc(OC)c(O)c4[C@]2(CCN3C)CC1=O,2.48
13,CCOC(=O)C1C(C=C(C)C)C1(C)C (centres undefined),2.39
14,O=C1C=CC(=O)c2ccccc21,3.2
15,CCC(C)C(=O)O[C@@H]1C[C@@]2(C)[C@H](c3ccoc3)OC(=O)CC23OC2(C)O[C@]14[C@]1(C)[C@@H](CC(=O)OC)C5(C)CC1(O)[C@](O)(C5OC(=O)C1(C)OC1C)[C@@H](OC(C)=O)[C@]34O2 (some centres undefined),1.3
16,CN1C[C@H](C(=O)N[C@]2(C)O[C@@]3(O)[C@@H]4CCCN4C(=O)[C@H](Cc4ccccc4)N3C2=O)C=C2c3cccc4[nH]cc(c34)C[C@H]21,-0.319
17,CNc1ccccc1C(=O)O,0.548
18,"C[C@@H]1C(=O)O[C@H]2[C@H]1CC[C@@]1(C)C=CC(=O)[C@@]3(C)O[C@@]213 [EPOXY (4,5alpha)-4,5-DIHYDROSANTONIN]",0.903
19,COP(=O)(OC)C(O)C(Cl)(Cl)Cl (centres undefined),3.38
20,CNC1CC(N)C(O)C(OC2OC(CO)C(O)C3OC4(OC(C(N)CO)C(O)C(O)C4O)OC23)C1O (centres undefined),2.36
21,C=CCc1ccc2c(c1)OCO2,-0.27
22,CCCC(C)C1(CC)C(=O)NC(=O)NC1=O (centres undefined),3.73
23,C[C@H]1CC[C@]2(NC1)O[C@H]1C[C@H]3[C@@H]4CC[C@H]5C[C@@H](O)CC[C@]5(C)[C@H]4CC[C@]3(C)[C@H]1[C@@H]2C,2.05
24,COP(=O)(OC)OC=C(Cl)Cl,0.315
25,S=C=NCc1ccccc1,1.81
26,C[C@]12CCC(=O)C=C1C=C[C@@H]1[C@@H]2CC[C@@]2(C)[C@H]1CC[C@@]2(O)CCC(=O)O,-2.2
27,CO[C@H]1[C@H](O)[C@H](O[C@H]2CC[C@@]3(C=O)[C@H](CC[C@@H]4[C@@H]3CC[C@]3(C)[C@@H](C5=CC(=O)OC5)CC[C@]43O)C2)O[C@@H](C)[C@@H]1O,1.49

row,Compound,AlphaScreen HuR-RNA complex signal Z-score
1,CC(=O)O[C@@H]1[C@H]2CC[C@H]3[C@@](C)(O)[C@@H]4C[C@H](O)C(C)(C)[C@@]4(O)[C@H](O)C[C@@]13C[C@@]2(C)O,1.69
2,CC[C@@H](C(=O)[C@@H](C)[C@@H](O)[C@H](C)[C@@H]1O[C@@H]([C@@H](CC)C(=O)O)CC[C@@H]1C)[C@H]1O[C@]2(C=C[C@@H](O)[C@]3(CC[C@@](C)([C@H]4CC[C@](O)(CC)[C@H](C)O4)O3)O2)[C@H](C)C[C@@H]1C,0.58
3,O=c1ccc2cc(O[C@@H]3O[C@H](CO)[C@@H](O)[C@H](O)[C@H]3O)c(O)cc2o1,2.11 and 0.779
4,NCC(O)c1ccc(O)cc1 (centres undefined),0.488
5,O=c1c2ccccc2[se]n1-c1ccccc1,1.85
6,C[C@]12CC[C@H]3[C@@H](CCC4=CC(=O)CC[C@@]43C)[C@@H]1CC[C@@H]2O,0.315
7,"C[C@]12CCC(=O)C[C@@H]1CC[C@@H]1[C@@H]2CC[C@]2(C)C(=O)CC[C@@H]12 [5alpha-ANDROSTAN-3,17-DIONE]",1.04
8,CC(=O)O[C@H]1C[C@@H]2CC[C@@H]3[C@H](CC[C@@]4(C)[C@H]3C[C@H]([N+]3(C)CCCCC3)[C@@H]4OC(C)=O)[C@@]2(C)C[C@@H]1[N+]1(C)CCCCC1,1.45
9,C[C@]12CC[C@H](O)C[C@H]1CC[C@@H]1[C@@H]2CC[C@]2(C)[C@@H](C3=CC(=O)OC3)[C@@H](O)C[C@]12O,2.97
10,CNC(=O)CSP(=S)(OC)OC,1.34
11,CCSCC[C@H](N)C(=O)O,2.16
12,CCNc1nc(Cl)nc(NC(C)C)n1,0.91
13,COc1c2c(cc3c1OCO3)CCN(C)C2,2.67
14,CC(=O)O[C@H]1C[C@@H](OC(C)=O)C(C)(C)C2C[C@@H](OC(C)=O)[C@]3(C)C(CC[C@@]4(C)[C@H](c5ccoc5)C(=O)[C@H]5O[C@]543)[C@]21C (some centres undefined),-3.5
15,CCCN(CCC)c1c([N+](=O)[O-])cc(C(F)(F)F)cc1[N+](=O)[O-],1
16,C=C(C)[C@H]1CN[C@H](C(=O)O)[C@H]1CC(=O)O,1.22
17,C[C@@H]1CC[C@@]2(OC1)O[C@H]1[C@@H](O)[C@H]3[C@@H]4CC[C@H]5C[C@@H](O[C@@H]6O[C@H](CO)[C@H](O[C@@H]7O[C@H](CO)[C@@H](O)[C@H](O[C@@H]8OC[C@@H](O)[C@H](O)[C@H]8O)[C@H]7O[C@@H]7O[C@H](CO)[C@H](O)[C@H](O[C@@H]8O[C@H](CO)[C@@H](O)[C@H](O)[C@H]8O)[C@H]7O)[C@H](O)[C@H]6O)[C@H](O)C[C@]5(C)[C@H]4CC[C@]3(C)[C@H]1[C@@H]2C,1.55
18,Cc1cc(O)ccc1Cl,-3.67
19,C=C[C@H]1CN2CC[C@H]1C[C@H]2[C@H](OC(=O)OCC)c1ccnc2ccc(OC)cc12,0.313
20,Nc1ncn[nH]1,2.02
21,CCCCC[C@H]1C(=O)O[C@H](C)[C@H](NC(=O)c2cccc(NC=O)c2O)C(=O)O[C@@H](C)[C@@H]1OC(=O)CC(C)C [ANTIMYCIN A (A1 shown)],-0.135
22,CC[C@H]1CN2CC[C@H]1C[C@@H]2[C@@H](O)c1ccnc2ccc(OC)cc12,1.3
23,CC(C)=CCCC1(C)C=Cc2c(O)c3c(c(CC=C(C)C)c2O1)OC12C(CC4CC1C(C)(C)OC2(C/C=C(/C)C(=O)O)C4O)C3=O (centres undefined),1.12
24,CC(C)N(CCC(C(N)=O)(c1ccccc1)c1ccccn1)C(C)C (centres undefined),-0.634
25,CC[C@@]1(O)C[C@H](O[C@H]2C[C@H](N(C)C)[C@H](O)[C@H](C)O2)c2c(cc3c(c2O)C(=O)c2c(O)cccc2C3=O)[C@H]1C(=O)OC,2.42

# From the supplement of paper PMC3741180, “A Novel High Throughput Biochemical Assay to Evaluate the HuR Protein-RNA Complex Formation” (PLoS ONE, 2013)
